# From the supplement of paper PMC8728848
# The other results are listed elsewhere or left out.
# Experiments:
# Experiment in all cases: glycan array binding signal (z-score within array); higher = stronger binding
# Settings in all cases: glycan notation: IUPAC condensed, linker removed
# [1] = target: Neu5Ac(a2-6)Gal(b1-4)GlcNAc(b1-2)Man(a1-3)[Man(a1-6)]Man(b1-4)GlcNAc(b1-4)GlcNAc
# Procedure, shortened: (§1)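 The Consortium for Functional Glycomics database supplied 3228 glycan arrays, of which those lacking an available protein sequence were dropped. The binding signal, a within-array Z-score, was averaged across arrays of the same protein sequence and across linkers. Negative scores can be read as non-binding.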
# [2] = target: Neu5Ac(a2-6)Gal(b1-4)GlcNAc(b1-2)Man(a1-3)[Neu5Ac(a2-3)Gal(b1-4)GlcNAc(b1-2)Man(a1-6)]Man(b1-4)GlcNAc(b1-4)GlcNAc
# Procedure, shortened: as §1
# [3] = target: Neu5Ac(a2-6)Gal(b1-4)GlcNAc(b1-2)Man(a1-3)[Neu5Ac(a2-6)Gal(b1-4)GlcNAc(b1-2)Man(a1-6)]Man(b1-4)GlcNAc(b1-4)GlcNAc
# Procedure, shortened: as §1
# [4] = target: Neu5Ac(a2-6)Gal(b1-4)GlcNAc(b1-2)Man(a1-3)[Neu5Ac(a2-6)Gal(b1-4)GlcNAc(b1-2)Man(a1-6)]Man(b1-4)GlcNAc(b1-4)[Fuc(a1-6)]GlcNAc
# Procedure, shortened: as §1
# [5] = target: Neu5Ac(a2-6)Gal(b1-4)GlcNAc(b1-2)Man(a1-6)Man(b1-4)GlcNAc(b1-4)GlcNAc
# Procedure, shortened: as §1
# [6] = target: Neu5Ac(a2-6)Gal(b1-4)GlcNAc(b1-2)Man(a1-6)[Gal(b1-4)GlcNAc(b1-2)Man(a1-3)]Man(b1-4)GlcNAc(b1-4)GlcNAc
# Procedure, shortened: as §1
# [7] = target: Neu5Ac(a2-6)Gal(b1-4)GlcNAc(b1-2)Man(a1-6)[GlcNAc(b1-2)Man(a1-3)]Man(b1-4)GlcNAc(b1-4)GlcNAc
# Procedure, shortened: as §1
# [8] = target: Neu5Ac(a2-6)Gal(b1-4)GlcNAc(b1-2)Man(a1-6)[Man(a1-3)]Man(b1-4)GlcNAc(b1-4)GlcNAc
# Procedure, shortened: as §1
# [9] = target: Neu5Ac(a2-6)Gal(b1-4)GlcNAc(b1-2)[Neu5Ac(a2-6)Gal(b1-4)GlcNAc(b1-4)]Man(a1-3)[GlcNAc(b1-4)][Neu5Ac(a2-6)Gal(b1-4)GlcNAc(b1-2)[Neu5Ac(a2-6)Gal(b1-4)GlcNAc(b1-6)]Man(a1-6)]Man(b1-4)GlcNAc(b1-4)GlcNAc
# Procedure, shortened: as §1
# [10] = target: Neu5Ac(a2-6)Gal(b1-4)GlcNAc(b1-2)[Neu5Ac(a2-6)Gal(b1-4)GlcNAc(b1-4)]Man(a1-3)[GlcNAc(b1-4)][Neu5Ac(a2-6)Gal(b1-4)GlcNAc(b1-4)Man(a1-6)]Man(b1-4)GlcNAc(b1-4)GlcNAc
# Procedure, shortened: as §1
# [11] = target: Neu5Ac(a2-6)Gal(b1-4)GlcNAc(b1-2)[Neu5Ac(a2-6)Gal(b1-4)GlcNAc(b1-6)]Man(a1-6)[Neu5Ac(a2-6)Gal(b1-4)GlcNAc(b1-2)Man(a1-3)][GlcNAc(b1-4)]Man(b1-4)GlcNAc(b1-4)GlcNAc
# Procedure, shortened: as §1
# [12] = target: Neu5Ac(a2-6)Gal(b1-4)GlcNAc(b1-3)Gal(b1-3)GlcNAc
# Procedure, shortened: as §1
# [13] = target: Neu5Ac(a2-6)Gal(b1-4)GlcNAc(b1-3)Gal(b1-4)GlcNAc
# Procedure, shortened: as §1
# [14] = target: Neu5Ac(a2-6)Gal(b1-4)GlcNAc(b1-3)Gal(b1-4)GlcNAc(b1-2)Man(a1-3)[Neu5Ac(a2-6)Gal(b1-4)GlcNAc(b1-3)Gal(b1-4)GlcNAc(b1-2)Man(a1-6)]GalNAc
# Procedure, shortened: as §1
# [15] = target: Neu5Ac(a2-6)Gal(b1-4)GlcNAc(b1-3)Gal(b1-4)GlcNAc(b1-3)Gal(b1-4)GlcNAc
# Procedure, shortened: as §1
# [16] = target: Neu5Ac(a2-6)Gal(b1-4)GlcNAc(b1-3)Gal(b1-4)GlcNAc(b1-3)Gal(b1-4)GlcNAc(b1-2)Man(a1-3)[Neu5Ac(a2-6)Gal(b1-4)GlcNAc(b1-3)Gal(b1-4)GlcNAc(b1-3)Gal(b1-4)GlcNAc(b1-2)Man(a1-6)]GalNAc
# Procedure, shortened: as §1
# [17] = target: Neu5Ac(a2-6)Gal(b1-4)GlcNAc(b1-3)Gal(b1-4)GlcNAc(b1-3)GalNAc
# Procedure, shortened: as §1
# [18] = target: Neu5Ac(a2-6)Gal(b1-4)GlcNAc(b1-3)Gal(b1-4)GlcNAc(b1-3)[Neu5Ac(a2-6)Gal(b1-4)GlcNAc(b1-3)Gal(b1-4)GlcNAc(b1-6)]GalNAc
# Procedure, shortened: as §1
# [19] = target: Neu5Ac(a2-6)Gal(b1-4)GlcNAc(b1-3)Gal(b1-4)GlcNAc(b1-6)[Gal(b1-3)]GalNAc
# Procedure, shortened: as §1
# [20] = target: Neu5Ac(a2-6)Gal(b1-4)GlcNAc(b1-3)Gal(b1-4)[Fuc(a1-3)]GlcNAc(b1-3)Gal(b1-4)[Fuc(a1-3)]GlcNAc
# Procedure, shortened: as §1
# [21] = target: Neu5Ac(a2-6)Gal(b1-4)GlcNAc(b1-3)GalNAc
# Procedure, shortened: as §1
# [22] = target: Neu5Ac(a2-6)Gal(b1-4)GlcNAc(b1-3)[Neu5Ac(a2-6)Gal(b1-4)GlcNAc(b1-6)]GalNAc
# Procedure, shortened: as §1
# [23] = target: Neu5Ac(a2-6)Gal(b1-4)GlcNAc(b1-6)GalNAc
# Procedure, shortened: as §1
# [24] = target: Neu5Ac(a2-6)Gal(b1-4)GlcNAc(b1-6)[Gal(b1-3)GlcNAc(b1-3)]Gal(b1-4)Glc
# Procedure, shortened: as §1
# [25] = target: Neu5Ac(a2-6)Gal(b1-4)GlcNAc(b1-6)[Gal(b1-3)]GalNAc
# Procedure, shortened: as §1
# [26] = target: Neu5Ac(a2-6)Gal(b1-4)GlcNAc6S
# Procedure, shortened: as §1
# Neu5Ac(a2-6)GalNAc = target: Neu5Ac(a2-6)GalNAc
# Procedure, shortened: as §1
# [27] = target: Neu5Ac(a2-6)GalNAc(b1-4)GlcNAc
# Procedure, shortened: as §1
# [28] = target: Neu5Ac(a2-6)GalNAc(b1-4)GlcNAc6S
# Procedure, shortened: as §1
# [29] = target: Neu5Ac(a2-6)GlcNAc(b1-4)GlcNAc
# Procedure, shortened: as §1
# [30] = target: Neu5Ac(a2-6)GlcNAc(b1-4)GlcNAc(b1-4)GlcNAc
# Procedure, shortened: as §1
binder,measurement,setting,value
Awp1 (Candida glabrata) (protein) MSLITIFAFLIKATLVLSLDILTPTTLTGDQTFNEDVSVVSSLTLNDGSQYLFNNLLQIAPSSASVTANALAAVSVFTFSLPPSSSLSNSGTLIISNSNTGPSTEQHIVITPNVMANTGTITLSLAHTNTDSSSTLIIDPVTFYNTGTINYESIGSETNDPSLTGNILSIGSSGRTLQNLGTINLNAANSYYLLGTITENSGSINVQKGFLYVNALDFIGNTINLSTTTALAFISPVSQVVRVRGVFFGNIIASVGSSGTFSYNTQTGILTVTTNGVYSYDIGCGYNPALMSGQQETLSFQGNPYDTFLVLVNQPIPSDLTCAAVSSSITPSSSVEPSSSVVPSSSVEPSSSVEPSSSVEPSSSVEPSSSVEPSSSVEPSSSVEPSSSVEPSSSVEPSSSVEPSSSVEPSSSVEPSSSVEPSSSVEPSSSVEPSSSVEPSSSVEPSSSVEPSSSVEPSSLIVPSSSVEPSSSVLPSSSVVPSSSVEPSTPPIPSSSVEPSSSVVPSSPAVPSSSVEPSTPPIPSSSVVSASVFDTSSTLPSSPSVPPSSVSPSTISTPSSSAAPSSFCPTCVSSGTPPAPSSSAIVPTSSAGGGNGGDNREPGAAGQPGAAGQPGAAGQPGAAGQPGAAGQPGAAGQPGAAGQPGAAGQPGAAGQPGAAGQPGAGFGVGSEQPTPGAGAGSGSADGNQSGTGSGTGNGQQGSGQAGSGQAGSGQEGSGQAGSGQAGSGQAGSGQAGSGQAGLDNTASGQSEGGQASAMDGDQSGRDGQSNSGSLLQPNAQQGTGSGTGSDIGADQASGESPGQIGDAQPGSGTDQSSGRHSLAAEARTSQSHSLAADARTRSTTRQTSVIAPDTAPGTASGTAPGTAPGTAVVTTFHGCGTVNHKGMINILLALALLVLL,glycan array binding signal (z-score),[1],0.89
same,glycan array binding signal (z-score),[2],-0.562
same,glycan array binding signal (z-score),[3],-0.835
same,glycan array binding signal (z-score),[4],0.687
same,glycan array binding signal (z-score),[5],0.198
same,glycan array binding signal (z-score),[6],0.517
same,glycan array binding signal (z-score),[7],1.05
same,glycan array binding signal (z-score),[8],1.88
same,glycan array binding signal (z-score),[9],-1.23
same,glycan array binding signal (z-score),[10],0.023
same,glycan array binding signal (z-score),[11],-0.983
same,glycan array binding signal (z-score),[12],-1.73
same,glycan array binding signal (z-score),[13],-1.51
same,glycan array binding signal (z-score),[14],-0.586
same,glycan array binding signal (z-score),[15],-0.173
same,glycan array binding signal (z-score),[16],1.1
same,glycan array binding signal (z-score),[17],-0.942
same,glycan array binding signal (z-score),[18],-0.63
same,glycan array binding signal (z-score),[19],-1.49
same,glycan array binding signal (z-score),[20],-1.76
same,glycan array binding signal (z-score),[21],0.116
same,glycan array binding signal (z-score),[22],1.24
same,glycan array binding signal (z-score),[23],-0.007
same,glycan array binding signal (z-score),[24],0.371
same,glycan array binding signal (z-score),[25],0.474
same,glycan array binding signal (z-score),[26],-0.321
same,glycan array binding signal (z-score),Neu5Ac(a2-6)GalNAc,-0.787
same,glycan array binding signal (z-score),[27],-1.54
same,glycan array binding signal (z-score),[28],0.406
same,glycan array binding signal (z-score),[29],1.59
same,glycan array binding signal (z-score),[30],-1.04

# Reprinted at random: two records from the list, in no set order.
binder,measurement,setting,value
Awp1 (Candida glabrata) (protein) MSLITIFAFLIKATLVLSLDILTPTTLTGDQTFNEDVSVVSSLTLNDGSQYLFNNLLQIAPSSASVTANALAAVSVFTFSLPPSSSLSNSGTLIISNSNTGPSTEQHIVITPNVMANTGTITLSLAHTNTDSSSTLIIDPVTFYNTGTINYESIGSETNDPSLTGNILSIGSSGRTLQNLGTINLNAANSYYLLGTITENSGSINVQKGFLYVNALDFIGNTINLSTTTALAFISPVSQVVRVRGVFFGNIIASVGSSGTFSYNTQTGILTVTTNGVYSYDIGCGYNPALMSGQQETLSFQGNPYDTFLVLVNQPIPSDLTCAAVSSSITPSSSVEPSSSVVPSSSVEPSSSVEPSSSVEPSSSVEPSSSVEPSSSVEPSSSVEPSSSVEPSSSVEPSSSVEPSSSVEPSSSVEPSSSVEPSSSVEPSSSVEPSSSVEPSSSVEPSSSVEPSSSVEPSSLIVPSSSVEPSSSVLPSSSVVPSSSVEPSTPPIPSSSVEPSSSVVPSSPAVPSSSVEPSTPPIPSSSVVSASVFDTSSTLPSSPSVPPSSVSPSTISTPSSSAAPSSFCPTCVSSGTPPAPSSSAIVPTSSAGGGNGGDNREPGAAGQPGAAGQPGAAGQPGAAGQPGAAGQPGAAGQPGAAGQPGAAGQPGAAGQPGAAGQPGAGFGVGSEQPTPGAGAGSGSADGNQSGTGSGTGNGQQGSGQAGSGQAGSGQEGSGQAGSGQAGSGQAGSGQAGSGQAGLDNTASGQSEGGQASAMDGDQSGRDGQSNSGSLLQPNAQQGTGSGTGSDIGADQASGESPGQIGDAQPGSGTDQSSGRHSLAAEARTSQSHSLAADARTRSTTRQTSVIAPDTAPGTASGTAPGTAPGTAVVTTFHGCGTVNHKGMINILLALALLVLL,glycan array binding signal (z-score),[10],0.023
same,glycan array binding signal (z-score),[14],-0.586
